# Results: PubChem BioAssay AID2685 (National Center for Advancing Translational Sciences (NCATS), 2010)
# Hit rate of the full screen: of about 320,000 compounds, about 2,100 (0.66%) were called active. Inconclusive results, whose numbers are uncertain, are shown with a selection of clear calls. Calls come from the whole dose curve; as a rule, active = well fitted inhibition curve with a large enough effect in the signal ratio, with a control signal flat (not every such curve was filed as active); inconclusive = small, poorly fitted or top-dose-only effect, or effect the other way, or a change in a side signal; inactive = flat fitted curve, though single readings scatter; the % refers to the signal ratio. Where the call is inconclusive, the potency comes from a doubtful curve fit.
# Test: qHTS Assay for Lipid Storage Modulators in Drosophila S3 Cells
# Conditions: BODIPY lipid droplet fluorescence, 18-24 h, cells fed with added oleic acid; lipid storage change, negative = inhibition: at 46.1 µM (top of the series) unless noted
# In short: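 Drosophila S3 cells loaded with oleic acid (400 uM, as added) and compounds at several concentrations; lipid droplets imaged by 488-nm laser-scanning cytometry, 500–530 nm intensity and object ratio to cell channel. Percent activity normalized to 20 uM Triacsin C.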
# % is set by controls: 0 for no effect and ±100 for the full control effect; potency is the fitted concentration of half-maximal effect.
SMILES,"lipid storage change, negative = inhibition",Potency
CCOC(=O)/C(O)=C(\C#N)c1nc2ccccc2[nH]1,inconclusive: 37.1%,–
COc1cc(/C=C/C(=O)O)cc(S(=O)(=O)Nc2ccccc2C(=O)NCCc2ccccc2)c1OC,–,"inconclusive: 29.1 µM [activator, single point]"
O=C(COC(=O)c1ccccc1Cl)NCCC1=CCCCC1,inconclusive: -23.5%,–
CCOCCCn1c(=S)[nH]c2cc(C(=O)NCCc3ccc(OC)c(OC)c3)ccc2c1=O,–,"inconclusive: 0.651 µM [falling, full curve, poor fit]"
CC(C)N1CCN(C(=O)c2ccc(NC(=O)c3ccc(Br)o3)cc2)CC1,inconclusive: 9.91%,–
Cc1cc(F)ccc1S(=O)(=O)Nc1c(C)n(C)n(-c2ccccc2)c1=O,–,"inconclusive: 29.1 µM [activator, single point]"
Cc1ccc(NC(=O)Nc2ccc([N+](=O)[O-])cc2)nc1,–,"inconclusive: 6.51 µM [rising, single point]"
COc1ccccc1NC(=O)c1ccccc1NC(=O)c1cccs1,inconclusive: 124%,–
COC(=O)c1sccc1NC(=O)Nc1ccc(C(C)=O)cc1,–,"inconclusive: 32.6 µM [falling, single point]"
CC1CCC(N(CCCN)Cc2ccco2)CC1C (stereo not given),inconclusive: -29.7%,–
CS(=O)(=O)N(CC(=O)N1CCCC1)c1ccc(Cl)cc1Cl,inconclusive: 30%,–
CC1(C)C2CCC1(CS(=O)(=O)N1CCOCC1)C(=O)C2 (stereo not given),–,"inconclusive: 7.31 µM [falling, partial curve, poor fit]"
O=C(N/N=C/c1ccc([N+](=O)[O-])o1)c1ccccc1-n1cccc1,–,"inconclusive: 6.51 µM [falling, single point]"
COc1cccc(/C=N/NC(=O)c2[nH]nc3c2CCc2ccccc2-3)c1O,–,"inconclusive: 29.1 µM [falling, single point]"
COC(=O)CSc1nnc(CNC(=O)c2ccccc2F)n1-c1ccc(F)cc1,inconclusive: 43.4%,–
COC(=O)C(Cc1ccc(O)cc1)NC(=O)C12CC3CC(CC(C3)C1)C2 (stereo not given),inconclusive: -44.9% [at 0.00295 µM],–
CCOc1cccc(-c2nc(C(N)=O)c3[nH]c(=O)n(-c4cccc(Cl)c4)c3n2)c1O,inconclusive: 19.3%,–
O=C(Nc1nc2ccccc2s1)c1ccccc1,inconclusive: 38.1%,–
COc1cc(/C=N/NC(=O)c2ccc(CSc3nc4ccccc4[nH]3)cc2)cc(OC)c1OC,–,"inconclusive: 29.1 µM [cytotoxic, single point]"
CCCCOc1ccc(S(=O)(=O)Nc2cccnc2)cc1,inconclusive: 58.7%,–
Cc1cccc(NC(=O)c2ccc(S(=O)(=O)N3CC(C)OC(C)C3)cc2)n1 (stereo not given),inconclusive: 26.7%,–
Cc1ccc(CNC(=O)C2CCN(S(=O)(=O)N3CCCC3)CC2)cc1,inconclusive: -24.3%,–
O=C(O)CNC(=S)NCc1ccccc1,inconclusive: 105%,–
COc1ccc(COn2c(=O)c(C)[n+]([O-])c3ccccc32)cc1OC,–,"inconclusive: 0.184 µM [activator, full curve, poor fit]"
O=C(CN1C(=O)NC2(CCCC2)C1=O)Nc1ccc(S(=O)(=O)N2CCOCC2)cc1,inconclusive: 52.4%,–

SMILES,"lipid storage change, negative = inhibition",Potency
O=C(Nc1ccc(N2CCN(C(=O)c3ccco3)CC2)cc1)c1ccccc1F,inconclusive: 23.8%,–
O=C(c1ccc2c3c(cccc13)CC2)C1CCCN(C(=O)c2ccc(=O)[nH]c2)C1 (stereo not given),inconclusive: -2.54%,–
CCOc1ccc(OCCC(=O)N(CC)CC(=O)Nc2ccccc2C(F)(F)F)cc1,inconclusive: 24.7%,–
COc1ccc(Br)cc1-c1nc(C)c(C(C)=O)n1O,inconclusive: 55.9%,–
CC(C)Cn1nnc2c(=O)oc3ccccc3c21,inconclusive: -22.7%,–
O=C(NNC(=O)C(O)(c1ccccc1)c1ccccc1)C1CC1,inconclusive: -36.1%,–
CSCCC1NC2(C(=O)Nc3c(Cl)cccc32)[C@@H]2C(=O)N(C3CCCC3)C(=O)[C@H]12 (stereo not given in full),inconclusive: 10.1%,–
CCOC(=O)c1cc(S(=O)(=O)NCc2ccco2)cn1C,inconclusive: -41.1%,–
CC1CN(C(=S)NC(=O)c2ccc([N+](=O)[O-])cc2)CC(C)O1 (stereo not given),inconclusive: 5.57%,–
c1ccc(CSc2nnc(-c3ccco3)o2)cc1,inactive,–
COc1cccc(C2c3[nH]c4ccccc4c3CCN2C(=O)c2ccccc2F)c1OC (stereo not given),–,"inconclusive: 18.4 µM [activator, partial curve]"
CCN1C(=O)NC(c2ccccc2)C1=O (stereo not given),inconclusive: -17%,–
CCOc1ccccc1NC(=O)c1cnc2n(c1=O)CCS2,inconclusive: -8.86%,–
CN(C)S(=O)(=O)c1ccc(N2CCCC2)c(C(=O)OCC(=O)NC2(C#N)CCCCC2)c1,inconclusive: 21.8%,–
Cc1ccc2nc(NC(=O)C(NS(=O)(=O)c3cccc4nsnc34)C(C)C)sc2c1 (stereo not given),–,"inconclusive: 18.4 µM [falling, partial curve, poor fit]"
CCCN(CCC(=O)Nc1ccccc1F)CC1CC1,inactive,–
O=c1[nH]c(N/N=C/c2cc3c(cc2[N+](=O)[O-])OCO3)nc2ccccc12,inconclusive: 8.38%,–
Cc1ccc(C(C)C)c(OCCNC(=O)c2ccccc2O)c1,–,"inconclusive: 20.6 µM [falling, single point]"
COc1ccc(CNC(=O)c2ccccc2SC)cc1,inconclusive: 79.4%,–
Oc1ccc(CCNc2ncnc3ccc(Cl)cc23)cc1,–,"inconclusive: 14.6 µM [falling, single point]"
COc1cc(/C=C(\C#N)C(=O)NCC2CCCO2)c([N+](=O)[O-])cc1OC (stereo not given),inconclusive: -36.9%,–
Cc1ccc(P(=O)(OCCN2CCOCC2)C(C)(C)C)o1 (stereo not given),inactive,–
Cc1cc2oc3c(c(=O)c2cc1C)C(c1cccc(Br)c1)N(Cc1ccco1)C3=O (stereo not given),inconclusive: 26.5%,–
Cc1cccc(-c2sc(Nc3ccccc3)n[n+]2-c2ccc(F)cc2)c1,inconclusive: 189%,–
COc1ccc(/C=N/NC(=O)CN2CCCC2)cc1,inconclusive: -77.5%,–

# Exported tab-delimited: entries from further up
SMILES	lipid storage change, negative = inhibition	Potency
CC1CN(C(=S)NC(=O)c2ccc([N+](=O)[O-])cc2)CC(C)O1 (stereo not given)	inconclusive: 5.57%	–
c1ccc(CSc2nnc(-c3ccco3)o2)cc1	inactive	–
